# Results published in the supplement of paper PMC8728848.
# The list shows a part of the results.
# Legend:
# Experiment in all cases: glycan array binding signal (z-score within array); higher = stronger binding
# Conditions in all cases: glycan notation: IUPAC condensed, linker removed
# Fuc(a1-2)Gal = biological target: Fuc(a1-2)Gal
# Method in brief: (§1)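 From the Consortium for Functional Glycomics database, 3228 arrays were curated, keeping only those whose protein sequence was available. Binding is given as a within-array Z-score averaged across arrays sharing a protein sequence and across linkers. Negative Z-scores can be read as non-binding.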
# Fuc(a1-2)Gal(b1-3)GalNAc = biological target: Fuc(a1-2)Gal(b1-3)GalNAc
# Method in brief: as §1
# [1] = biological target: Fuc(a1-2)Gal(b1-3)GalNAc(a1-3)[Fuc(a1-2)]Gal(b1-4)Glc
# Method in brief: as §1
# [2] = biological target: Fuc(a1-2)Gal(b1-3)GalNAc(a1-3)[Fuc(a1-2)]Gal(b1-4)GlcNAc
# Method in brief: as §1
# [3] = biological target: Fuc(a1-2)Gal(b1-3)GalNAc(b1-3)Gal
# Method in brief: as §1
# [4] = biological target: Fuc(a1-2)Gal(b1-3)GalNAc(b1-3)Gal(a1-4)Gal(b1-4)Glc
# Method in brief: as §1
# [5] = biological target: Fuc(a1-2)Gal(b1-3)GalNAc(b1-4)[Neu5Ac(a2-3)]Gal(b1-4)Glc
# Method in brief: as §1
# Fuc(a1-2)Gal(b1-3)GlcNAc = biological target: Fuc(a1-2)Gal(b1-3)GlcNAc
# Method in brief: as §1
# [6] = biological target: Fuc(a1-2)Gal(b1-3)GlcNAc(b1-2)Man(a1-3)[Fuc(a1-2)Gal(b1-3)GlcNAc(b1-2)Man(a1-6)]Man(b1-4)GlcNAc(b1-4)GlcNAc
# Method in brief: as §1
# [7] = biological target: Fuc(a1-2)Gal(b1-3)GlcNAc(b1-2)Man(a1-3)[Fuc(a1-2)Gal(b1-3)GlcNAc(b1-2)Man(a1-6)]Man(b1-4)GlcNAc(b1-4)[Fuc(a1-6)]GlcNAc
# Method in brief: as §1
# [8] = biological target: Fuc(a1-2)Gal(b1-3)GlcNAc(b1-3)Gal(b1-4)Glc
# Method in brief: as §1
# [9] = biological target: Fuc(a1-2)Gal(b1-3)GlcNAc(b1-3)GalNAc
# Method in brief: as §1
# [10] = biological target: Fuc(a1-2)Gal(b1-3)GlcNAc(b1-3)[Fuc(a1-3)[Gal(b1-4)]GlcNAc(b1-6)]Gal(b1-4)Glc
# Method in brief: as §1
# [11] = biological target: Fuc(a1-2)Gal(b1-3)GlcNAc(b1-3)[Gal(b1-4)GlcNAc(b1-6)]Gal(b1-4)Glc
# Method in brief: as §1
# [12] = biological target: Fuc(a1-2)Gal(b1-3)GlcNAc(b1-3)[Neu5Ac(a2-6)Gal(b1-4)GlcNAc(b1-6)]Gal(b1-4)Glc
# Method in brief: as §1
# [13] = biological target: Fuc(a1-2)Gal(b1-3)[Fuc(a1-4)]GlcNAc
# Method in brief: as §1
# [14] = biological target: Fuc(a1-2)Gal(b1-3)[Fuc(a1-4)]GlcNAc(b1-2)Man(a1-3)[Fuc(a1-2)Gal(b1-3)[Fuc(a1-4)]GlcNAc(b1-2)Man(a1-6)]Man(b1-4)GlcNAc(b1-4)GlcNAc
# Method in brief: as §1
# [15] = biological target: Fuc(a1-2)Gal(b1-3)[Fuc(a1-4)]GlcNAc(b1-3)[Fuc(a1-3)[Gal(b1-4)]GlcNAc(b1-6)]Gal(b1-4)Glc
# Method in brief: as §1
# [16] = biological target: Fuc(a1-2)Gal(b1-3)[Fuc(a1-4)]GlcNAc(b1-3)[Gal(b1-4)GlcNAc(b1-6)]Gal(b1-4)Glc
# Method in brief: as §1
# Fuc(a1-2)Gal(b1-4)Glc = biological target: Fuc(a1-2)Gal(b1-4)Glc
# Method in brief: as §1
# Fuc(a1-2)Gal(b1-4)Glc6S = biological target: Fuc(a1-2)Gal(b1-4)Glc6S
# Method in brief: as §1
# Fuc(a1-2)Gal(b1-4)GlcNAc = biological target: Fuc(a1-2)Gal(b1-4)GlcNAc
# Method in brief: as §1
# [17] = biological target: Fuc(a1-2)Gal(b1-4)GlcNAc(b1-2)Man(a1-3)[Fuc(a1-2)Gal(b1-4)GlcNAc(b1-2)Man(a1-6)]Man(b1-4)GlcNAc(b1-4)GlcNAc
# Method in brief: as §1
# [18] = biological target: Fuc(a1-2)Gal(b1-4)GlcNAc(b1-2)Man(a1-3)[Fuc(a1-2)Gal(b1-4)GlcNAc(b1-2)Man(a1-6)]Man(b1-4)GlcNAc(b1-4)[Fuc(a1-6)]GlcNAc
# Method in brief: as §1
# [19] = biological target: Fuc(a1-2)Gal(b1-4)GlcNAc(b1-2)[Fuc(a1-2)Gal(b1-4)GlcNAc(b1-4)]Man(a1-3)[Fuc(a1-2)Gal(b1-4)GlcNAc(b1-2)Man(a1-6)]Man(b1-4)GlcNAc(b1-4)GlcNAc
# Method in brief: as §1
# [20] = biological target: Fuc(a1-2)Gal(b1-4)GlcNAc(b1-3)Gal(b1-4)GlcNAc
# Method in brief: as §1
# [21] = biological target: Fuc(a1-2)Gal(b1-4)GlcNAc(b1-3)Gal(b1-4)GlcNAc(b1-3)Gal(b1-4)GlcNAc
# Method in brief: as §1
# [22] = biological target: Fuc(a1-2)Gal(b1-4)GlcNAc(b1-3)GalNAc
# Method in brief: as §1
# [23] = biological target: Fuc(a1-2)Gal(b1-4)GlcNAc(b1-3)[Fuc(a1-2)Gal(b1-4)GlcNAc(b1-6)]GalNAc
# Method in brief: as §1
# [24] = biological target: Fuc(a1-2)Gal(b1-4)GlcNAc6S
# Method in brief: as §1
binder,measurement,setting,value
"Flo11 (Saccharomyces cerevisiae), P08640 (protein) MQRPFLLAYLVLSLLFNSALGFPTALVPRGSSEGTSCNSIVNGCPNLDFNWHMDQQNIMQYTLDVTSVSWVQDNTYQITIHVKGKENIDLKYLWSLKIIGVTGPKGTVQLYGYNENTYLIDNPTDFTATFEVYATQDVNSCQVWMPNFQIQFEYLQGSAAQYASSWQWGTTSFDLSTGCNNYDNQGHSQTDFPGFYWNIDCDNNCGGTKSSTTTSSTSESSTTTSSTSESSTTTSSTSESSTTTSSTSESSTSSSTTAPATPTTTSCTKEKPTPPTTTSCTKEKPTPPHHDTTPCTKKKTTTSKTCTKKTTTPVPTPSSSTTESSSAPVPTPSSSTTESSSAPVTSSTTESSSAPVPTPSSSTTESSSAPVTSSTTESSSAPVTSSTTESSSAPVPTPSSSTTESSSAPVTSSTTESSSAPVTSSTTESSSAPVTSSTTESSSAPVTSSTTESSSAPVPTPSSSTTESSSAPVTSSTTESSSAPVPTPSSSTTESSSAPVTSSTTESSSAPVPTPSSSTTESSSAPAPTPSSSTTESSSAPVTSSTTESSSAPVPTPSSSTTESSSTPVTSSTTESSSAPVPTPSSSTTESSSAPVPTPSSSTTESSSAPAPTPSSSTTESSSAPVTSSTTESSSAPVPTPSSSTTESSSAPVPTPSSSTTESSSAPVPTPSSSTTESSSAPVTSSTTESSSAPVTSSTTESSSAPVPTPSSSTTESSSAPVPTPSSSTTESSSAPVPTPSSSTTESSSAPVTSSTTESSSAPVPTPSSSTTESSSAPVPTPSSSTTESSSAPVPTPSSSTTESSVAPVPTPSSSSNITSSAPSSTPFSSSTESSSVPVPTPSSSTTESSSAPVSSSTTESSVAPVPTPSSSSNITSSAPSSIPFSSTTESFSTGTTVTPSSSKYPGSQTETSVSSTTETTIVPTKTTTSVTTPSTTTITTTVCSTGTNSAGETTSGCSPKTVTTTVPTTTTTSVTTSSTTTITTTVCSTGTNSAGETTSGCSPKTITTTVPCSTSPSETASESTTTSPTTPVTTVVSTTVVTTEYSTSTKPGGEITTTFVTKNIPTTYLTTIAPTPSVTTVTNFTPTTITTTVCSTGTNSAGETTSGCSPKTVTTTVPCSTGTGEYTTEATTLVTTAVTTTVVTTESSTGTNSAGKTTTGYTTKSVPTTYVTTLAPSAPVTPATNAVPTTITTTECSAATNAAGETTSVCSAKTIVSSASAGENTAPSATTPVTTAIPTTVITTESSVGTNSAGETTTGYTTKSIPTTYITTLIPGSNGAKNYETVATATNPISIKTTSQLATTASASSVAPVVTSPSLTGPLQSASGSAVATYSVPSISSTYQGAANIKVLGNFMWLLLALPVVF",glycan array binding signal (z-score),Fuc(a1-2)Gal,-0.634
same,glycan array binding signal (z-score),Fuc(a1-2)Gal(b1-3)GalNAc,-0.307
same,glycan array binding signal (z-score),[1],1.02
same,glycan array binding signal (z-score),[2],0.964
same,glycan array binding signal (z-score),[3],4.03
same,glycan array binding signal (z-score),[4],-0.679
same,glycan array binding signal (z-score),[5],0.519
same,glycan array binding signal (z-score),Fuc(a1-2)Gal(b1-3)GlcNAc,-0.02
same,glycan array binding signal (z-score),[6],0.3
same,glycan array binding signal (z-score),[7],0.319
same,glycan array binding signal (z-score),[8],-0.645
same,glycan array binding signal (z-score),[9],-1.08
same,glycan array binding signal (z-score),[10],-0.176
same,glycan array binding signal (z-score),[11],-0.282
same,glycan array binding signal (z-score),[12],-0.495
same,glycan array binding signal (z-score),[13],-0.133
same,glycan array binding signal (z-score),[14],-0.514
same,glycan array binding signal (z-score),[15],0.43
same,glycan array binding signal (z-score),[16],-0.237
same,glycan array binding signal (z-score),Fuc(a1-2)Gal(b1-4)Glc,-0.316
same,glycan array binding signal (z-score),Fuc(a1-2)Gal(b1-4)Glc6S,-0.035
same,glycan array binding signal (z-score),Fuc(a1-2)Gal(b1-4)GlcNAc,-0.335
same,glycan array binding signal (z-score),[17],0.607
same,glycan array binding signal (z-score),[18],-0.198
same,glycan array binding signal (z-score),[19],-0.519
same,glycan array binding signal (z-score),[20],0.24
same,glycan array binding signal (z-score),[21],-1.32
same,glycan array binding signal (z-score),[22],1.35
same,glycan array binding signal (z-score),[23],-0.989
same,glycan array binding signal (z-score),[24],1.02
